Laboratory results from paper PMC10275055, “Preventing recurrence in Sonic Hedgehog Subgroup Medulloblastoma using the OLIG2 inhibitor CT-179” (Research Square, 2023).
No constants are given. Whether binding was seen depends on the method and setting. Some binding calls cover weakened binding; strength is not graded here. Where a sequence is shown, tags or fusion partners need not be part of it.

Tests used:
[1] = molecular target: OLIG2 fluorescent protein fusion (OLIG2-eGFP; OLIG2-Tomato) (UniProt Q13516); test: molecular brightness (counts per second per molecule, CPM) from fluorescence autocorrelation; live HEK293 cells expressing OLIG2-eGFP; untreated or treated with 1 μM or 10 μM CT-179
[2] = molecular target: OLIG2 fluorescent protein fusion (OLIG2-eGFP; OLIG2-Tomato) (UniProt Q13516); test: fluorescence cross-correlation spectroscopy (FCCS); live HEK293 cells co-transfected with OLIG2-eGFP and OLIG2-Tomato, measured in the cell nucleus; relative cross-correlation amplitude (RCA) against eGFP and Tomato alone; untreated or treated with CT-179 for 1 h at 37 °C

B1: OLIG2 fluorescent protein fusion (OLIG2-eGFP; OLIG2-Tomato) (protein, UniProt Q13516 1-323)
chain: MDSDASLVSSRPSSPEPDDLFLPARSKGSSGSAFTGGTVSSSTPSDCPPELSAELRGAMGSAGAHPGDKLGGSGFKSSSSSTSSSTSSAAASSTKKDKKQMTEPELQQLRLKINSRERKRMHDLNIAMDGLREVMPYAHGPSVRKLSKIATLLLARNYILMLTNSLEEMKRLVSEIYGGHHAGFHPSACGGLAHSAPLPAATAHPAAAAHAAHHPAVHHPILPPAAAAAAAAAAAAAVSSASLPGSGLPSVGSIRPPHGLLKSPSAAAAAPLGGGGGGSGASGGFQHWGGMPCPCSMCQVPPPHHHVSAMGAGSLPRLTSDAK
[1]
  binding: binds
[2]
  binding: binds
